These results are taken from PMC8306970.

The chains behind the UniProt entries cited, without tags or fusion partners.
UniProt Q8R4B8: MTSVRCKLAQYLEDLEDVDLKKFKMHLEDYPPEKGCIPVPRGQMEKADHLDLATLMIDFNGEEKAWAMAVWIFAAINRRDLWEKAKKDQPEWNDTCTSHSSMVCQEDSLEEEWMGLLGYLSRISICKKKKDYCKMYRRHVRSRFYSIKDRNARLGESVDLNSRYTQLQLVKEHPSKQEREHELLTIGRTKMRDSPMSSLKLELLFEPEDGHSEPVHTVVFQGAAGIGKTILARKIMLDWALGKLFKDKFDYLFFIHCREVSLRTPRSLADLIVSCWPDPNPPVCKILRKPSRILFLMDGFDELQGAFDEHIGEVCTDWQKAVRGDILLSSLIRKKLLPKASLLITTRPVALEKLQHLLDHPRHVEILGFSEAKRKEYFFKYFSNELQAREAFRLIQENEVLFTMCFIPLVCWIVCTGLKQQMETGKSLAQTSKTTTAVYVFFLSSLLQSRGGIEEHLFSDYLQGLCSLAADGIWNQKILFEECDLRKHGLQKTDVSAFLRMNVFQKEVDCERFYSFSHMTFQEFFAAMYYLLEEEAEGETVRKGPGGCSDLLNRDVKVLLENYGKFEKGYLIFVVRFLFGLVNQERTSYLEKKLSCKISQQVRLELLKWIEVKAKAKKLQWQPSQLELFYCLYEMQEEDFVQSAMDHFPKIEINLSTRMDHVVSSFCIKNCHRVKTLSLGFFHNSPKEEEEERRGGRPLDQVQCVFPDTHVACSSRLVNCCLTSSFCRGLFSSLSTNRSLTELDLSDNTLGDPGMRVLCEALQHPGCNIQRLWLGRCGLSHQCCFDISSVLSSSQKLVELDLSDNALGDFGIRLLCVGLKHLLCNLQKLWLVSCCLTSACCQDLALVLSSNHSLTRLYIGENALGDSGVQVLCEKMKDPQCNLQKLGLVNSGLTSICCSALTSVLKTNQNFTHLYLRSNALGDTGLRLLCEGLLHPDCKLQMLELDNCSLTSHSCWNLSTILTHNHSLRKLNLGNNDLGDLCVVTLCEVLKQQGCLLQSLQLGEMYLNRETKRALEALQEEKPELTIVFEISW

These are yes or no findings as the source states them, for the method shown. Binding seen in cells or lysates may run through a third protein. Some entries that bind do so weakly or less than the wild type. For some assays here: Where a sequence is shown, tags or fusion partners need not be part of it.

For test [1], the target named is T1, pCDNA3.1(+)-3×FLAG-TREM2 (TREM2 overexpressed in BV2 cells) (murine) (UniProt Q99NH8).
T1 sequence: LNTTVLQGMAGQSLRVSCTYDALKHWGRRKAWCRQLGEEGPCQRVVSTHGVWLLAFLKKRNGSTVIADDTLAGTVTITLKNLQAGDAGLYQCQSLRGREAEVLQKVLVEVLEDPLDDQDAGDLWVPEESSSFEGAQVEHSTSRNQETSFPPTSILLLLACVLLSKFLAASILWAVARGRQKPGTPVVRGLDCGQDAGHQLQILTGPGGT
Description: co-IP; BV2 lysates (WT, TREM2 KO, TREM2 OE; with or without 35 mM high glucose) in RIPA buffer (1% NP-40, 0.25% deoxycholate), immunoprecipitated with anti-TREM2 antibody or control IgG and protein A/G beads at 4 °C overnight; blotted for NLRP3 and TREM2.

The target of test [2] is T2, TREM2 (triggering receptor expressed on myeloid cells-2) (mouse (endogenous in BV2)) (UniProt Q99NH8).
T2 sequence: T1 sequence
Described as above.

With “NLRP3 (nucleotide-binding oligomerization domain-like receptor protein 3) (from UniProt Q8R4B8 1-1033)”, the binding result in test [1] and in test [2] was “binds” throughout.
